# ± gives the standard deviation. The entries are a selection whose mix differs from that of the whole data set. Many entries were measured with a wide error.
# System: MIWI (PIWIL1) piRISC loaded with piRNA #2 (30 nt)
# Assay: pre-steady-state target cleavage rate (min^-1); MIWI and MILI are mouse PIWI proteins and EfPiwi is from a freshwater sponge; tags in brackets are library labels; higher = faster piRNA-guided slicing of the target
# Details: guide: piRNA #2 5'p-UUAGGUAACCCAGUAGAUCCAGAGGAAUUC; auxiliary factor: 500 nM mouse GTSF1
# Summary of the method: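 Sequencing of uncleaved targets, normalised to depth and to weakly complementary targets, was the readout of this Cleave-'n-Seq assay. A transcribed, DNA-blocked target RNA library (0.1 nM) was mixed with 1 nM active affinity-purified piRISC carrying one synthetic guide, with or without 500 nM GTSF1 partner protein, in HEPES–potassium acetate buffer at 33 °C for 0–8 or 0–960 min. Three trials were pooled, k3 was capped at 0.0001 min^-1, and a burst-and-steady-state fit gave the pre-steady-state cleavage rate.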
row,Sequence,pre-steady-state target cleavage rate
1,CUUAAGGACUGGAUCUACUGGGUAACCUUA,0.00433 ± 0.015
2,CUUAAGGACUGGAUCUACUCGGUUACCUAA,0.0207 ± 0.022
3,CUUAAGGAGUGGAUCUACCUGGGUUACCUAA,0.00078 ± 0.009
4,CUUAAGGAGACCUAGAUCUGGGUUACCCUAA,0.000329 ± 0.016
5,CUUAAGGAGAGGAUCUACUGGGUAACCUUA,0.000305 ± 0.021
6,CUUAAGGAGACCUAGAUGUGGGUUACCAUAA,0.000615 ± 0.011
7,CUUAACCUCUGGAUAUACUGGGUUACCUAA,0.552 ± 0.042
8,CUUAUCCUCUGGAUCUACUGGUGUUACCUAA,0.00283 ± 0.0044
9,CUUAAGGAGACCAUCUACUGGGUUCCUAA,0.000716 ± 0.012
10,CUUAAGGAGACCAUCUACUGGUUACCUAA,0.00154 ± 0.0051
11,CAAUACGUCUGGAUCUACUGGGUUACCUAA,0.494 ± 0.053
12,CUUAAGGACUGGAUCUACUGCCUUACCUAA,0.00533 ± 0.0099
13,CUUAAGGAGUGGAUCUACUCGGUUACCAAA,0.00101 ± 0.019
14,GAAUUCCUCUGCAACUACUGGGUUACCUAA,0.413 ± 0.048
15,CUUUUCCUCUGGAUCUAACUGGGUUACCUAA,0.00138 ± 0.0072
16,CUUAAGGACUGAUCUACUGGGUUACCUAA,0.00708 ± 0.0098
17,CUUAACCUCUGGAUCUACUGGGUAUGGAUA [g8:g25:cont:t1A],0.000957 ± 0.013
18,CUUAAGGAGACGAUCUAGUGGGUUACGUAA,0.000391 ± 0.0066
19,CUUAACCUCUGGAUCUACUGGGUUACCGUAA,0.155 ± 0.019
20,CUUAAGGAGACCUUGUACUGGGUUACCAAA,0.000262 ± 0.016
21,CUUAAGGAGACCAUCUACUGGCUUACGUAA,0.00134 ± 0.0066
22,CUUAAGGAGACCUUCUACUGGCUUACGUAA,0.000514 ± 0.011
23,CUUUUCCUCUGGAUCUACUGGGUACCUAA,0.00119 ± 0.006

row,Sequence,pre-steady-state target cleavage rate
1,CUAUUCCUCUGGAUCUUACUGGGUUACCUAA,0.00334 ± 0.0039
2,CUUAAGGAGAGGAUCUACUGGGUUACGAUA,0.000541 ± 0.013
3,CUAUUCCUCUGGAUCAACUGGGUUACCUAA,0.44 ± 0.051
4,CUUAAGGACUGGAUCUACUGGGUUUCGUAA,0.00837 ± 0.0098
5,CAAUUCCUCUGGAUCUACUGGCAAACCUAA,0.00304 ± 0.0041
6,CUUAAGCUCUGGAUCUACUGGCAUACCUAA,0.00166 ± 0.0078
7,CUUAAGGAGAGGAUCUACUUGGUUACCUAA,0.00298 ± 0.0043
8,CUUAAGGAGACGAUCUACAUGGGUUACCUAA,0.00106 ± 0.0072
9,CUUAAGCUCUGGAUCUACUGCCAUACCUAA,0.00142 ± 0.01
10,CUUAAGGAGACCAUCUACUGGGUUACCAUA,0.00206 ± 0.0044
11,CUUAAGGAGACCUAGUAUCUGGGUUACCUAA,0.000675 ± 0.015
12,CUUAAGGAGACCUUCUAUGGGUUACCUAA,0.001 ± 0.011
13,GAAUUCCUCUGGAUCUACUGGGUGACCUAA,0.244 ± 0.038
14,CUAUUCCUCUGGAUUUACUGGGUUACCUAA,0.529 ± 0.048
15,CUUAAGGAGACCUUCUACUGGGUAUGCUAA,0.000582 ± 0.013
16,CUUAAGGAGACCUAGAUCUUGGGUUACCUAA,0.00111 ± 0.0075
17,CUUAAGGUCUGGAUGUUCUGGGUUACCUAA,0.05 ± 0.018
18,CUUAAGGAGACGAUCUUCUGGCUUACCUAA,0.000248 ± 0.014
19,CUUAAGGAGACCUAGAAGCUGGGUUACCUAA,0.000854 ± 0.0096
20,CUUAACCUCUGGAUCUACUGGAGUUACCUAA,0.00317 ± 0.0031
21,CAAUUCCUCUGCUUCUACUGGGUUACCUAA,0.653 ± 0.056
22,CUUAAGGAGAGGUAGUACUGGGUUACCUAA,0.000832 ± 0.012
23,CUUAAGGAGAGGUUCUACUGGGAUACCUAA,0.00084 ± 0.011

row,Sequence,pre-steady-state target cleavage rate
1,CUUAAGGACUGGAUUACUGGGUUACCUAA,0.00908 ± 0.014
2,CUUAAGGACUGGAUCAACUCGGUUACCUAA,0.00252 ± 0.013
3,CUUAAGGUCACCAUCUACUGGGUUACCUAA,0.00137 ± 0.0062
4,CUUAAGGACUGGAUGUACUCGGUUACCUAA,0.00083 ± 0.028
5,CUUAAGGAGAGGAUCUACUGCGUUAGCUAA,0.000176 ± 0.041
6,CUAUUCCUCUGGAUGUACUGGGUUACCUAA,0.533 ± 0.041
7,CUUAAGGAGACGAUCAACUGCGUUACCUAA,0.00112 ± 0.0054
8,CUUAAGGAGACCUUCUACUGGGUUACCAUAA,0.00192 ± 0.007
9,GAAUUCCUCUGGAUCUACUGCCAAUGGAUA [g11:g30:cont:t1A],0.000149 ± 0.033
10,CUUAAGGUCUGGAUCUUGAGGGUUACCUAA,0.00127 ± 0.0064
11,CUUAAGGAGACCUAGUACUGGGUUACCUGA,0.000347 ± 0.019
12,CUUAAGGAGAGGAUUACUGGGUUACCUAA,0.00014 ± 0.041
13,CUUAAGGAGACCUUCAACUGGGUUACCAAA,0.000245 ± 0.017
14,CUUAAGGUCUGGAUCUAGCUGGGUUACCUAA,0.000348 ± 0.021
15,CUAUUCCUCUGGAUCUACUGGGUUAGGAUA [g6:g28:cont:t1A],0.00334 ± 0.0046
16,CUUAAGGAGACCUACUACUGCGGUUACCUAA,0.00281 ± 0.0041
17,CUUAAGGAGACCUAGAUGAGGGUUACGAAA,0.000658 ± 0.011
18,CUUAAGGACAGGAUCUUCUGGGUUACCUAA,0.00624 ± 0.0089
19,CUUAAGGAGACCUAGUACUGGGUUACCUAC [g2:g15:cont:t1C],0.00116 ± 0.0044
20,CUUAAGGAGACCUACUUCUGGGUUACGUAA,0.00119 ± 0.0078
21,CUUAAGGAGUCCAUCUACUGGGUUACCUAA,0.00218 ± 0.0041
22,CUUAAGGAGACCUUCUACUGCGUAACCUAA,0.00108 ± 0.01
23,CUUAAGGACUGGAUACUACUGGGUUACCUAA,0.0183 ± 0.019

row,Sequence,pre-steady-state target cleavage rate
1,CUUAAGGAGACCUAGAUGUGGGUUAACUAA,0.000405 ± 0.016
2,CUUAAGGAGACGAUCUACUGUGGUUACCUAA,0.000248 ± 0.013
3,CUUAAGGAGACCUAGAUGACCCAUACCUAA,0.000279 ± 0.017
4,CUUAAGGAGACCUAGUGACUGGGUUACCUAA,0.00028 ± 0.029
5,CUUAAGGAGACCAUCUACUGGGUUAACUAA,0.00185 ± 0.0036
6,CUUAAGGAGACCAUCUACUGAGGUUACCUAA,0.00182 ± 0.0076
7,GAAUUCCUCUCGAUCUACUGGGUUACCUAA,0.642 ± 0.068
8,CUUAAGGAGACCAUCUACUGGGUUACCUCA,0.0011 ± 0.0092
9,GAAUUCCUCUGGAUCUACUGGGUACCUAA,0.00153 ± 0.0055
10,CUUAAGGAGAGGAUCGACUGGGUUACCUAA,0.00066 ± 0.029
11,CUUAAGGAGACCAUCUACGUGGGUUACCUAA,0.00127 ± 0.0071
12,CUUAAGGAGACCUUCUACUCCGUUACCUAA,0.00111 ± 0.0053
13,CUUAAGGAGACCUAGUACUGGGUUUCCAAA,0.000879 ± 0.0094
14,CUUAAGGAGACCAUCUACUGGGUUAGCCUAA,0.00318 ± 0.0037
15,CUUAAGGAGACCUACUACUGGGUACCUAA,0.00131 ± 0.0051
16,CUUAAGGAGACCUACUACUGGGUUUACCUAA,0.00188 ± 0.0049
17,CUUAAGGAGAGGAUAUACUGGGUUACCUAA,0.00311 ± 0.0034
18,CUUAAGGAGACGAAUCUACUGGGUUACCUAA,0.00192 ± 0.0029
19,CUAUUCCUCUGGAACUUCUGGGUUACCUAA,0.299 ± 0.036
20,CUUAAGGAGACGAUCUACUGGGAAUCCUAA,0.000972 ± 0.0065
21,CUUAAGGACUGGAUCUACUGGGUUUGGUAA,0.000413 ± 0.039

# From the supplement of paper PMC10338343
